Test results taken from paper PMC3762332.

Protein sequences, listed by entry. Tags and fused reporters are not part of them. Lines headed by an entry give the natural chain unless they say otherwise; changes in a name come on top.
UniProt P23771: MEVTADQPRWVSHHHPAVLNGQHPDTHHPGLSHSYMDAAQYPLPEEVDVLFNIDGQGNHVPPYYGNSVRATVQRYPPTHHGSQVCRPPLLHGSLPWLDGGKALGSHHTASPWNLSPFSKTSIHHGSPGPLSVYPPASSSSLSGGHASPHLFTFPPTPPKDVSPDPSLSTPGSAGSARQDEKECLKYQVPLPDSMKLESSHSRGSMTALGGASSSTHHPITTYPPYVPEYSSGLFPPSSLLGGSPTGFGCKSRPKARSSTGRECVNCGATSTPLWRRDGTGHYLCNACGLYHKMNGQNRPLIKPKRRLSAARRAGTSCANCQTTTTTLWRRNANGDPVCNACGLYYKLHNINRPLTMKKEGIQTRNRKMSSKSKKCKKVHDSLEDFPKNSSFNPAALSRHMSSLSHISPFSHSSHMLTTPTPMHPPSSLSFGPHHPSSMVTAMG
UniProt P43694: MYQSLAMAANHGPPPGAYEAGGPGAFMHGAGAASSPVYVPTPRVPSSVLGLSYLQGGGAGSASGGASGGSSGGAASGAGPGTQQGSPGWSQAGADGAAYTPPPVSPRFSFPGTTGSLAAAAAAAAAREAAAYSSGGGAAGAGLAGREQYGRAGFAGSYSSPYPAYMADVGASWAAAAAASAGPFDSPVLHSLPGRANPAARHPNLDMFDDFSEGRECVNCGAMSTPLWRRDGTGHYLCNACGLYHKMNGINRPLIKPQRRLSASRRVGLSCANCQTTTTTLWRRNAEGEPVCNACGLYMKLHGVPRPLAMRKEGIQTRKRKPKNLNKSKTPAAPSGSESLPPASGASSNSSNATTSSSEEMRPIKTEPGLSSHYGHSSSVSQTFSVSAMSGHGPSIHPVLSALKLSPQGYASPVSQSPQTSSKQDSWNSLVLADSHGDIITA
UniProt P20719: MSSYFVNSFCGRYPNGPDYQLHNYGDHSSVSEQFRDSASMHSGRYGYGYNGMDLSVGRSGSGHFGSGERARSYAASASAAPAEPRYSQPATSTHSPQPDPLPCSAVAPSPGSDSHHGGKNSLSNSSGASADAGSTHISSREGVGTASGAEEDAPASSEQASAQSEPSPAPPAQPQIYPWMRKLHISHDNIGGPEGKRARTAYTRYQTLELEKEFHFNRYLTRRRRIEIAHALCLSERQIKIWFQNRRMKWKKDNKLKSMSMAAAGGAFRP
UniProt P37231: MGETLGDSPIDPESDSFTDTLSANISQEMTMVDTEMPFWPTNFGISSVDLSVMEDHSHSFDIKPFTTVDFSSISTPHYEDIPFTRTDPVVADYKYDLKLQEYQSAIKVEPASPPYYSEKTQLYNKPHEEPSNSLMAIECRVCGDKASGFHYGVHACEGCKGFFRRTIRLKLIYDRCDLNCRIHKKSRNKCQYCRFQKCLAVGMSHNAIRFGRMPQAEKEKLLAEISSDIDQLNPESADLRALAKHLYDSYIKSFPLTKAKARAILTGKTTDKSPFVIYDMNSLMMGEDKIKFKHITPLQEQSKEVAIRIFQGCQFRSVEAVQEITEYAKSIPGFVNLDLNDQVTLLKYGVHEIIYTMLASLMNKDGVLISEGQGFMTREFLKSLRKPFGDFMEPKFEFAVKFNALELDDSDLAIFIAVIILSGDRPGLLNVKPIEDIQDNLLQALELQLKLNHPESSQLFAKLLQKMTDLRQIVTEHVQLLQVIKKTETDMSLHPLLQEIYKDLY
UniProt P19793: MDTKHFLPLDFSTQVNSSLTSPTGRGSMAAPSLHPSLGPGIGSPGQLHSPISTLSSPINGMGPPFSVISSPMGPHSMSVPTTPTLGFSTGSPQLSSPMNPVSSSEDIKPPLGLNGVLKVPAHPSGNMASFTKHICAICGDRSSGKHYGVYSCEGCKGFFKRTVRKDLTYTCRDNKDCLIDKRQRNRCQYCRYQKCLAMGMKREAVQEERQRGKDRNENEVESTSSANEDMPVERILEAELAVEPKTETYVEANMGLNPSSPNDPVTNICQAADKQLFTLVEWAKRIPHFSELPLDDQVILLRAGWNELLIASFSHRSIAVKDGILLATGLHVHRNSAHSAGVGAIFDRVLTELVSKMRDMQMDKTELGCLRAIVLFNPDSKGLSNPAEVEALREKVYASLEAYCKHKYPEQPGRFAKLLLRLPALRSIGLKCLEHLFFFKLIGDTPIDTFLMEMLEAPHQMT
UniProt Q8NC26: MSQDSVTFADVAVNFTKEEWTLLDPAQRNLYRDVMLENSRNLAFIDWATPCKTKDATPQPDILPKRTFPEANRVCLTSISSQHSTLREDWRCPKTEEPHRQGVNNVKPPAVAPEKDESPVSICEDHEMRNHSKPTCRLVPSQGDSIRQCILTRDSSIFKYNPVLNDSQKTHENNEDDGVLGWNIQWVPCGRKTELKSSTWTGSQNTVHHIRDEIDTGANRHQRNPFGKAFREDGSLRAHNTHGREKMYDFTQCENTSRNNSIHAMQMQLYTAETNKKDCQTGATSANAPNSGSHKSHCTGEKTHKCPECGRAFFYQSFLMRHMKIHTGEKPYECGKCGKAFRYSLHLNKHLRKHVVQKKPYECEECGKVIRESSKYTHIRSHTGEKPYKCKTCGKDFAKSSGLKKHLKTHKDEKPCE
UniProt Q9BWM5: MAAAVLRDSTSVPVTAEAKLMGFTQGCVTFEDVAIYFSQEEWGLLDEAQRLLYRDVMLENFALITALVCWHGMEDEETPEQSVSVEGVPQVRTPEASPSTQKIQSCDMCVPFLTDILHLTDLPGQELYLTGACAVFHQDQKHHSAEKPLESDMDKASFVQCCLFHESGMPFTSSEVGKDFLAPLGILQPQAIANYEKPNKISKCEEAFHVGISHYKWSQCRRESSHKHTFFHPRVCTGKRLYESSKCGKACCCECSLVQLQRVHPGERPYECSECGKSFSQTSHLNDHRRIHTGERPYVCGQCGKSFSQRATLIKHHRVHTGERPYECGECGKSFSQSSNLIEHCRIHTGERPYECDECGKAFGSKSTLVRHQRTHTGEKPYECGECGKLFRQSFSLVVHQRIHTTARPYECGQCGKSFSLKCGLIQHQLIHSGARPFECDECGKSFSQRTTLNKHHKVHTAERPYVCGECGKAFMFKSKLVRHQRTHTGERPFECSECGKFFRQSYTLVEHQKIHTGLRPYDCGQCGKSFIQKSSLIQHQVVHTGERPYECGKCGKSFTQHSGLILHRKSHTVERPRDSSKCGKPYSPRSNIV
UniProt Q8IW36: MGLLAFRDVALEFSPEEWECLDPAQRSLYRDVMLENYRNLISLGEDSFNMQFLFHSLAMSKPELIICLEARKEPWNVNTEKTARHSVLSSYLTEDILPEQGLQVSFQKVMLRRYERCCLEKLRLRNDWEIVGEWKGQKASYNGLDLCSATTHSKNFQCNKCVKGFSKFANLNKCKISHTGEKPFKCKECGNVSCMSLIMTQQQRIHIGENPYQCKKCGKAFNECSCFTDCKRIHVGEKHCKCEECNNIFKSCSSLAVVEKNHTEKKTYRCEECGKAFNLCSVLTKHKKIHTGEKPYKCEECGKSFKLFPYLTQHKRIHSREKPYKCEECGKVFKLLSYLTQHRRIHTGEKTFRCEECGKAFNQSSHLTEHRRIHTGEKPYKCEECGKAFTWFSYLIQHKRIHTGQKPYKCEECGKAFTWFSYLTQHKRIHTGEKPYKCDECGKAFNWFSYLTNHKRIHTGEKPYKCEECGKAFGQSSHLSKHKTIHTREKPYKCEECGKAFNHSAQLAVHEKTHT
UniProt Q15583: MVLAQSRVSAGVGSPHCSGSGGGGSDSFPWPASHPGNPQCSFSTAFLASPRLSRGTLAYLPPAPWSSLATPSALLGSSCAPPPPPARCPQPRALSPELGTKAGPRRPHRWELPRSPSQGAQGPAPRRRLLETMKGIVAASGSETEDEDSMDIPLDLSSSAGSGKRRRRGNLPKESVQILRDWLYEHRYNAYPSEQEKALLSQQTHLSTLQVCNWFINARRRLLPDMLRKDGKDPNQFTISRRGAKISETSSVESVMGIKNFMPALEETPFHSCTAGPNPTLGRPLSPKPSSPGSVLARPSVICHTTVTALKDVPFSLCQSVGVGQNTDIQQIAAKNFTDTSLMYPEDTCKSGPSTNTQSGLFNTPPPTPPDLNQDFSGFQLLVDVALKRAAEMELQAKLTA
UniProt Q9Y2L8: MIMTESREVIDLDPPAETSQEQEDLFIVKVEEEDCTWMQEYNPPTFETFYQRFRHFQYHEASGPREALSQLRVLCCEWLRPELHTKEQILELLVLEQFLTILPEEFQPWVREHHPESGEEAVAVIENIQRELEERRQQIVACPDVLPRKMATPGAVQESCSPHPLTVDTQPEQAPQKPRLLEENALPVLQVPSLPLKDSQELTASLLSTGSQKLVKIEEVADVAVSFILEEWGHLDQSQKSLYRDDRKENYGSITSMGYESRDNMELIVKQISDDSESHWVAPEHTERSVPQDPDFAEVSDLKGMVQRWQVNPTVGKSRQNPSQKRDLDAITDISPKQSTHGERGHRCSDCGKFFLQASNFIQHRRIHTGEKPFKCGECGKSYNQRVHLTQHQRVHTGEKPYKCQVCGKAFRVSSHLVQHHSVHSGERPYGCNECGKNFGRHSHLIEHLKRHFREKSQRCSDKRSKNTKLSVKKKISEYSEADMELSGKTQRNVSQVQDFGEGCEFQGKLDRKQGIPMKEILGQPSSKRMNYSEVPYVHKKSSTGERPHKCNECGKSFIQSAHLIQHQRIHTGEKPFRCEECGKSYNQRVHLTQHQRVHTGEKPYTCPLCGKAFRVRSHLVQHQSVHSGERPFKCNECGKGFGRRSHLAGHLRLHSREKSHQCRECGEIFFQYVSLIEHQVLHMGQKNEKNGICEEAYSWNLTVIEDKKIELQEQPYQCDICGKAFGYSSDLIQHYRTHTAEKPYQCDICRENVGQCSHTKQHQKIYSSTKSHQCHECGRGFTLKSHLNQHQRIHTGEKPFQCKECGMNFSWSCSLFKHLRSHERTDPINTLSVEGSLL
UniProt O00716: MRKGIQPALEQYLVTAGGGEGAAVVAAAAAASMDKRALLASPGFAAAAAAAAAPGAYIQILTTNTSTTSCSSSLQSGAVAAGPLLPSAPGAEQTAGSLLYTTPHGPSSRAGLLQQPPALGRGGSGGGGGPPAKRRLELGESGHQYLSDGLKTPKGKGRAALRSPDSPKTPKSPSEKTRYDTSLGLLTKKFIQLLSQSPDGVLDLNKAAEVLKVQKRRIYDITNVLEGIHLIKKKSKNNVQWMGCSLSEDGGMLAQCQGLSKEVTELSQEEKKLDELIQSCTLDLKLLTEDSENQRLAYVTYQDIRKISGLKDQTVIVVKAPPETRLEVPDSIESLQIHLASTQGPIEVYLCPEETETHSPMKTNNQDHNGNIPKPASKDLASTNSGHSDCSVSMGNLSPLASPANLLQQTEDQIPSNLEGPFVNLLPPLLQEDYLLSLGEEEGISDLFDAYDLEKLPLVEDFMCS

Experiments:
Test in all cases: protein microarray
Settings in all cases: 10-fold cold unmethylated competitor; 5mC at CpG (SssI, both strands); recombinant protein; protein details: GST (N-terminal); label: Cy5
BCL3 (Homo sapiens) = molecular target: T1, BCL3 (Homo sapiens) (UniProt P20749)
T1 sequence (looked up, limits assumed): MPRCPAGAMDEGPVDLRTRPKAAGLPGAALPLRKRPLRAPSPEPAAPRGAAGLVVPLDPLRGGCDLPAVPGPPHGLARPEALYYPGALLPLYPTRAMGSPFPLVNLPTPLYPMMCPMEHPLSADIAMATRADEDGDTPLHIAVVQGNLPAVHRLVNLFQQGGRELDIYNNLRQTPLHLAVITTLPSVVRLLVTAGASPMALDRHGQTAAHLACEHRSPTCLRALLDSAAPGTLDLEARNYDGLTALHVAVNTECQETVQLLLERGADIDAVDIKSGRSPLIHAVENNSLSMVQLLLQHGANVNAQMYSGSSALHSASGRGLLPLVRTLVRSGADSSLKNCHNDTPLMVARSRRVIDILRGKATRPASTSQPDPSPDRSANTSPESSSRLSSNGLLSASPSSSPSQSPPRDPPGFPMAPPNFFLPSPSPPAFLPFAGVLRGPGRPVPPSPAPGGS

GATA3 (Homo sapiens) = GATA3 (Homo sapiens) (UniProt P23771)
GATA4 (Homo sapiens) = GATA4 (Homo sapiens) (UniProt P43694)
HOXA5 (Homo sapiens) = HOXA5 (Homo sapiens) (UniProt P20719)
PPARG (Homo sapiens) = PPARG (Homo sapiens) (UniProt P37231)
RNF138 (Homo sapiens) = molecular target: T2, RNF138 (Homo sapiens) (UniProt Q8WVD3)
T2 sequence (looked up, limits assumed): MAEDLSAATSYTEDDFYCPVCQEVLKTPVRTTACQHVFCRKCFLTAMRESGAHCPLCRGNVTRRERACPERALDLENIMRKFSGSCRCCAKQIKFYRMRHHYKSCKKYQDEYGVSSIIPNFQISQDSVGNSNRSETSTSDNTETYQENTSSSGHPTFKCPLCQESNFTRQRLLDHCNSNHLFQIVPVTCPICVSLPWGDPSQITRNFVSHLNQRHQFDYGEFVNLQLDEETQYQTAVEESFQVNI

RXRA (Homo sapiens) = RXRA (Homo sapiens) (UniProt P19793)
SCAPER (Homo sapiens) = molecular target: T3, SCAPER (Homo sapiens) (UniProt Q9BY12)
T3 sequence (looked up, limits assumed): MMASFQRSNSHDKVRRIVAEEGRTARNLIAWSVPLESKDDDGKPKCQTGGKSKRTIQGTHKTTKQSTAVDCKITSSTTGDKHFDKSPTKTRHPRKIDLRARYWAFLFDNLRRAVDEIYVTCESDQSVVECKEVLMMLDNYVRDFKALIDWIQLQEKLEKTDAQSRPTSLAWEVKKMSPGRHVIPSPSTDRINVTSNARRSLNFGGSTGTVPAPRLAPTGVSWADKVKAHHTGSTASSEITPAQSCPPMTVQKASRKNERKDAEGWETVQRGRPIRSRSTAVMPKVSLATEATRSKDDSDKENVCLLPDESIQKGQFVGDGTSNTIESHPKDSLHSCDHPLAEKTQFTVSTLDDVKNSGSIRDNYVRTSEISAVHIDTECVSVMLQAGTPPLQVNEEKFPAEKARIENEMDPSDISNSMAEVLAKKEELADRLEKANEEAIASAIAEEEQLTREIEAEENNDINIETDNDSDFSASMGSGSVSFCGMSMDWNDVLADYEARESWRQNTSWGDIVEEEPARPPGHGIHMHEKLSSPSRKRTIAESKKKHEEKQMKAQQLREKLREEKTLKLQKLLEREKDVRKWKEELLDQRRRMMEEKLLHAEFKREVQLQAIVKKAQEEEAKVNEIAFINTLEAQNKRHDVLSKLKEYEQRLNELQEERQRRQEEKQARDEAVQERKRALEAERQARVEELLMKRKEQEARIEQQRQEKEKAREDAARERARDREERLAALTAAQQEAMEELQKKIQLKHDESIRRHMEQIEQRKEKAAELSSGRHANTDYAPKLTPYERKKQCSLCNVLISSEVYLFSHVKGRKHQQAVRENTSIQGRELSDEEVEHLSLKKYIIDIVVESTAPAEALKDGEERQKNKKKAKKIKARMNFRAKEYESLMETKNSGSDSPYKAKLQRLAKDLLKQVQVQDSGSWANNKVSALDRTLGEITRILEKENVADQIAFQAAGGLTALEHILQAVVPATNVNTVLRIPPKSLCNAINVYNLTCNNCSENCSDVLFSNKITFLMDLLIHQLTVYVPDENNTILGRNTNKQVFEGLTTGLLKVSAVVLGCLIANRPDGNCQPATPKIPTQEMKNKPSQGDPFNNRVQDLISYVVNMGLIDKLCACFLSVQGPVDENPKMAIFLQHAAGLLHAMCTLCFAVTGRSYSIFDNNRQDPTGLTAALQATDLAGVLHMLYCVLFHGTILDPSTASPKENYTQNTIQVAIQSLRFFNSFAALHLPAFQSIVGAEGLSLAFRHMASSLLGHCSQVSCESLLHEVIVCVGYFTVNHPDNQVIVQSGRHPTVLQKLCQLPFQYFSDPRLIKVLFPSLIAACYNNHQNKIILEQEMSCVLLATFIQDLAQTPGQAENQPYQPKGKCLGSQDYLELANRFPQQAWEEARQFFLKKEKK

ZNF114 (Homo sapiens) = ZNF114 (Homo sapiens) (UniProt Q8NC26)
ZNF416 (Homo sapiens) = ZNF416 (Homo sapiens) (UniProt Q9BWM5)
ZNF695 (Homo sapiens) = ZNF695 (Homo sapiens) (UniProt Q8IW36)
TGIF1 (Homo sapiens) = TGIF1 (Homo sapiens) (UniProt Q15583)
ZKSCAN5 (Homo sapiens) = ZKSCAN5 (Homo sapiens) (UniProt Q9Y2L8)
E2F3 (Homo sapiens) = E2F3 (Homo sapiens) (UniProt O00716)
NRF1 (Homo sapiens) = molecular target: T4, NRF1 (Homo sapiens) (UniProt Q16656)
T4 sequence (looked up, limits assumed): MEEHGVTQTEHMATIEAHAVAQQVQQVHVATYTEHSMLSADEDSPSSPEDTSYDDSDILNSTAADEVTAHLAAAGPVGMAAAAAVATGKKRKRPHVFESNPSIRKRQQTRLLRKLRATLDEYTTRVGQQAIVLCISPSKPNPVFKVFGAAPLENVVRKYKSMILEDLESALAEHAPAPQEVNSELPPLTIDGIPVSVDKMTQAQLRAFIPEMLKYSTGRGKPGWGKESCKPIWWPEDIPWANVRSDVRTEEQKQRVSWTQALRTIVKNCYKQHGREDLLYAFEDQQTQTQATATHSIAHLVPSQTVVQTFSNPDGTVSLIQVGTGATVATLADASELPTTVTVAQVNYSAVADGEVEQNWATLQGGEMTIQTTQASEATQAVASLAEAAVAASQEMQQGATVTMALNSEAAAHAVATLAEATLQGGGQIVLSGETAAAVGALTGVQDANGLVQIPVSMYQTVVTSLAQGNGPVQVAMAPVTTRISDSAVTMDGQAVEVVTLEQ

ZCCHC7 (Homo sapiens) = molecular target: T5, ZCCHC7 (Homo sapiens) (UniProt Q8N3Z6)
T5 sequence (looked up, limits assumed): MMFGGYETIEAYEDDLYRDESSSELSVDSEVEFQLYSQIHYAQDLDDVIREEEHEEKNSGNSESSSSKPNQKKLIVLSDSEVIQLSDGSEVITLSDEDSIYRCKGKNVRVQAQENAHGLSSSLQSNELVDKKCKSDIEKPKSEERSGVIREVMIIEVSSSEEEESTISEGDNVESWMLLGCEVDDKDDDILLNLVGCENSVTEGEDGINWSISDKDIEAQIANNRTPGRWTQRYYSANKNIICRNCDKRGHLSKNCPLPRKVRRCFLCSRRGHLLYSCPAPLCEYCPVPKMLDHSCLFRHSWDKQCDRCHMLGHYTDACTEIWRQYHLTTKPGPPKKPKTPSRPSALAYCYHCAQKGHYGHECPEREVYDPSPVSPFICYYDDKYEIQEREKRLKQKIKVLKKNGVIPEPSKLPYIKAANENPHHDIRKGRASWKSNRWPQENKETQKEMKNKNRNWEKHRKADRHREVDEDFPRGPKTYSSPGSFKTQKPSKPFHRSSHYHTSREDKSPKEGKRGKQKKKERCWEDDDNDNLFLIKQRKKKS

Measured: binding result

GCGCTCCAAAGCGCTCCCCCTATAGTGAGTGCTATTA (double strand) [M83]
not listed: ZNF695 (Homo sapiens) | TGIF1 (Homo sapiens) | ZKSCAN5 (Homo sapiens) | E2F3 (Homo sapiens) | NRF1 (Homo sapiens) | ZCCHC7 (Homo sapiens)
binds: all other assays above

GCTGCCTCCGAAAGGTTTGCTGCCTCCGAAAGGCCCTATAGTGAGTGCTATTA (double strand) [M388]
not listed: BCL3 (Homo sapiens) | TGIF1 (Homo sapiens) | ZKSCAN5 (Homo sapiens) | E2F3 (Homo sapiens) | NRF1 (Homo sapiens) | ZCCHC7 (Homo sapiens)
binds: all other assays above

GACGACGAAAAAGACGACGAACCCTATAGTGAGTGCTATTA (double strand) [M269]
binds: TGIF1 (Homo sapiens) | ZKSCAN5 (Homo sapiens) | ZNF416 (Homo sapiens)

AAGCGGACTTTAAGCGGACCCCTATAGTGAGTGCTATTA (double strand) [M442]
not listed: BCL3 (Homo sapiens) | GATA3 (Homo sapiens) | ZNF695 (Homo sapiens) | ZKSCAN5 (Homo sapiens) | ZCCHC7 (Homo sapiens)
binds: all other assays above

AAAACGTACCCAAAACGTACCCTATAGTGAGTGCTATTA (double strand) [M437]
binds: GATA3 (Homo sapiens) | GATA4 (Homo sapiens) | HOXA5 (Homo sapiens) | PPARG (Homo sapiens) | RNF138 (Homo sapiens) | SCAPER (Homo sapiens) | ZCCHC7 (Homo sapiens) | ZNF114 (Homo sapiens) | ZNF416 (Homo sapiens)

AGTTTCGACCCCAGTTTCGACCCCTATAGTGAGTGCTATTA (double strand) [M408]
not listed: BCL3 (Homo sapiens) | GATA3 (Homo sapiens) | PPARG (Homo sapiens) | RNF138 (Homo sapiens) | RXRA (Homo sapiens) | NRF1 (Homo sapiens)
binds: all other assays above

TCGCCGCAAATCGCCGCCCCTATAGTGAGTGCTATTA (double strand) [M293]
binds: E2F3 (Homo sapiens) | NRF1 (Homo sapiens) | TGIF1 (Homo sapiens) | ZKSCAN5 (Homo sapiens) | ZNF416 (Homo sapiens)

CTAGTCGCTAAACTAGTCGCTCCCTATAGTGAGTGCTATTA (double strand) [M402]
binds: PPARG (Homo sapiens) | TGIF1 (Homo sapiens) | ZKSCAN5 (Homo sapiens) | ZNF114 (Homo sapiens) | ZNF416 (Homo sapiens) | ZNF695 (Homo sapiens)

AGCGGATAGTTTAGCGGATAGCCCTATAGTGAGTGCTATTA (double strand) [M403]
not listed: BCL3 (Homo sapiens) | GATA3 (Homo sapiens) | ZKSCAN5 (Homo sapiens) | NRF1 (Homo sapiens)
binds: all other assays above

The exact form of at least one protein or probe is not confirmed. For some of these results: Protein sequences can lack the tags named with them.
